The values below come from PubChem BioAssay AID1794844 (National Center for Advancing Translational Sciences (NCATS), 2023).

Chains of the proteins cited; added tags and fusions are not shown. Lines headed by an entry give the natural chain unless they say otherwise; changes in a name come on top.
UniProt C7C422: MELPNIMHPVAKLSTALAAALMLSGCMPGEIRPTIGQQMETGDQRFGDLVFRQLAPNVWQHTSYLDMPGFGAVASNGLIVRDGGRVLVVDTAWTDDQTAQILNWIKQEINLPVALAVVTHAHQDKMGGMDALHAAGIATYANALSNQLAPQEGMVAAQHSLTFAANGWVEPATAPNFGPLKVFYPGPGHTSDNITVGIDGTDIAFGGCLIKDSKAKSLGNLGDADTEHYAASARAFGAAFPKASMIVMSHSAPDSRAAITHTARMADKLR

Structures are written as SMILES. The whole screen tested about 2,800 compounds, of which fewer than 10 were called active. Roughly 7% stayed inconclusive and do not appear here. The call rests on the fitted dose curve; in most records, active means well fitted inhibition curve with a large enough effect; inconclusive means small, poorly fitted or top-dose-only effect; inactive means no such curve, though single readings can be large or run the other way. The list shows a part of the results.

The target in this test is Metallo-beta-lactamase type 2 (Klebsiella pneumoniae) (UniProt C7C422). The test can be described thus: qHTS to identify inhibitors of the New Delhi Metallo-beta-lactamase (NDM): Nitrocefin screen against the machine-based learning selections. Further: % of control where 0% means no effect. The settings on record: NDM-1 enzyme, nitrocefin hydrolysis, absorbance 485 nm; activity, negative = inhibition: at the top concentration. In a few lines:
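NDM-1 (2 nM final) in 50 mM HEPES pH 7.0, 1 uM Zn2SO4, 0.01% Tween20 was preincubated with compounds for >30 min. Nitrocefin (16.7 uM final) was read at 485 nm after 15 min, and meropenem (50 uM final) at 300 nm after 30 min.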
In general terms: In qHTS, concentration-response curves come from the screen itself.
Consider `CN(Cc1cccc(C(F)(F)F)c1)Cc1nc(-c2ccccc2)no1`, for which the “activity, negative = inhibition” value is inactive: -5.09%.

On to `O=C(c1cccc(Cl)c1)N1C[C@@H](CO)[C@H](c2ccccn2)C1`, for which the “activity, negative = inhibition” value was inactive: -7.17%.

On to `CN1CCC(N2CC[C@H](c3nnc(-c4ccc(N(C)C)cc4)o3)C2)CC1`, for which the “activity, negative = inhibition” value is inactive: 8.7% [at 57.5 µM].

As to `COCCOc1ccnc(-c2noc([C@@H]3CCCN3Cc3cccnc3)n2)c1`, the “activity, negative = inhibition” value was inactive: -3.49% [at 57.5 µM].

In the case of `COCCN1C(=O)CCc2cc(NC(=O)c3ccc(C)c(C)c3)ccc21`, the “activity, negative = inhibition” value is inactive: 0.927%.

As to `Nc1nc(C2CC(O)C2)cc(N2CCC(OCc3ccccn3)CC2)n1` (configuration not stated), the “activity, negative = inhibition” value is inactive: 1.81%.

Regarding `COc1cccc([C@@H]2CCN(Cc3cn[nH]c3C(=O)O)C[C@H]2O)c1`, the “activity, negative = inhibition” value was inactive: -18%.

As to `C#CCN(C)C(=O)c1c(-c2ccc(OC)cc2)noc1[C@H](C)O`, the “activity, negative = inhibition” value is inactive: -3.79% [at 57.5 µM].

In the case of `O=C(O)[C@]12CCCN[C@@H]1CCN(Cc1cnc(-c3ccccn3)nc1)C2`, the “activity, negative = inhibition” value was inactive: 3.6%.

With `CCc1noc(-c2cccn3c(CNC(=O)Cc4c[nH]c5ccccc45)nnc23)n1`, the “activity, negative = inhibition” value was inactive: 2.08%.

As to `C[C@@]12CO[C@@H](Cc3ccccc3)O[C@@H]1CC[C@]1(C)C2CC[C@@H](O)[C@H]1CC(=O)NCc1cc(F)cc(F)c1` (some centres not stated), the “activity, negative = inhibition” value is inactive: 7.38%.

On to `O=C1Cc2c(-c3ccc4ccccc4c3)n[nH]c2CN1Cc1ccccn1`, for which the “activity, negative = inhibition” value was inactive: 0.0105% [at 57.5 µM].

For `COCCNC(=O)C[C@@H]1C[C@H]2O[C@H](CNCc3cnccc3C(F)(F)F)[C@@H](O)[C@H]2O1`, the “activity, negative = inhibition” value is inactive: -19.7% [at 57.5 µM].

On to `Cn1nc(CC2CCN(C(=O)c3cnon3)CC2)n(-c2ccccc2)c1=O`, for which the “activity, negative = inhibition” value is inactive: -0.577%.

Take `O=C(c1ccc2ncccc2c1)N1CCC2(CC1)Nc1ccccc1NC2=O`: the “activity, negative = inhibition” value was inactive: -0.464%.

Turning to `CC(C)CN(Cc1cccnc1)C1CN(C(=O)CC2CCCCC2)C1`, the “activity, negative = inhibition” value is inactive: -3%.

Take `C[C@@H](NC(=O)c1cccn1C)c1onc(-c2ccc(F)cc2)c1C(=O)O`: the “activity, negative = inhibition” value is inactive: 5.27% [at 57.5 µM].

On to `Cc1oc(C(O)c2ccccc2F)nc1C(=O)Nc1ccc(C(N)=O)cc1` (configuration not stated), for which the “activity, negative = inhibition” value is inactive: -2.51% [at 57.5 µM].

With `Cc1cc(C)c(CNC(=O)c2nc(-c3ccc(CN(C)C)cc3)cc3[nH]ccc23)c(=O)[nH]1`, the “activity, negative = inhibition” value is inactive: 1.93% [at 57.5 µM].

Regarding `C#CCN(C)Cc1nc(C2(O)CCN(C(=O)NCC=C)CC2)cs1`, the “activity, negative = inhibition” value was inactive: -0.833% [at 57.5 µM].

With `CN1CCC(N2CCC(O)(c3csc(CN4CCc5ccccc5C4)n3)CC2)CC1`, the “activity, negative = inhibition” value is inactive: 3.45% [at 57.5 µM].

In the case of `CC(C)CS(=O)(=O)N[C@H](C)c1onc(-c2ccc(Cl)cc2)c1C(=O)O`, the “activity, negative = inhibition” value was inactive: -7.76% [at 57.5 µM].

Turning to `O=C(Cc1c[nH]c2ncc(-c3cccnc3)cc12)Nc1ccc(F)cc1`, the “activity, negative = inhibition” value is inactive: 2.56% [at 57.5 µM].

As for `Nc1n[nH]c(CNc2cc(-c3ccc(F)cc3)nc3ccnn23)n1`, the “activity, negative = inhibition” value was inactive: 8.01%.

`Fc1ccc2cnc(N3CCC(N[C@H]4C[C@@H]5OCC[C@H]45)CC3)nc2c1`: the “activity, negative = inhibition” value was inactive: -0.685%.

As to `O=C(c1cc2sccc2[nH]1)N1CCCn2nc(C(O)CO)cc2C1` (configuration not stated), the “activity, negative = inhibition” value is inactive: 1.02%.

Regarding `CCOCCN1C(=O)COC[C@@H]1[C@H](O)c1ccc(NC(=O)c2ccccc2)cc1`, the “activity, negative = inhibition” value is inactive: 5.48% [at 57.5 µM].
